Results are given in words; binding and its absence hold for the method and conditions named. Binding seen in cells or lysates may run through a third protein. Some binding calls cover weakened binding; strength is not graded here.
Target: lysine methyl-transferase EHMT2 (also known as G9a or KMT1C) (human (endogenous in Ishikawa)) (UniProt Q96KQ7)
Test: co-IP

Sequences of proteins named here, by UniProt entry; tags and fusion partners are left off.
UniProt Q96KQ7: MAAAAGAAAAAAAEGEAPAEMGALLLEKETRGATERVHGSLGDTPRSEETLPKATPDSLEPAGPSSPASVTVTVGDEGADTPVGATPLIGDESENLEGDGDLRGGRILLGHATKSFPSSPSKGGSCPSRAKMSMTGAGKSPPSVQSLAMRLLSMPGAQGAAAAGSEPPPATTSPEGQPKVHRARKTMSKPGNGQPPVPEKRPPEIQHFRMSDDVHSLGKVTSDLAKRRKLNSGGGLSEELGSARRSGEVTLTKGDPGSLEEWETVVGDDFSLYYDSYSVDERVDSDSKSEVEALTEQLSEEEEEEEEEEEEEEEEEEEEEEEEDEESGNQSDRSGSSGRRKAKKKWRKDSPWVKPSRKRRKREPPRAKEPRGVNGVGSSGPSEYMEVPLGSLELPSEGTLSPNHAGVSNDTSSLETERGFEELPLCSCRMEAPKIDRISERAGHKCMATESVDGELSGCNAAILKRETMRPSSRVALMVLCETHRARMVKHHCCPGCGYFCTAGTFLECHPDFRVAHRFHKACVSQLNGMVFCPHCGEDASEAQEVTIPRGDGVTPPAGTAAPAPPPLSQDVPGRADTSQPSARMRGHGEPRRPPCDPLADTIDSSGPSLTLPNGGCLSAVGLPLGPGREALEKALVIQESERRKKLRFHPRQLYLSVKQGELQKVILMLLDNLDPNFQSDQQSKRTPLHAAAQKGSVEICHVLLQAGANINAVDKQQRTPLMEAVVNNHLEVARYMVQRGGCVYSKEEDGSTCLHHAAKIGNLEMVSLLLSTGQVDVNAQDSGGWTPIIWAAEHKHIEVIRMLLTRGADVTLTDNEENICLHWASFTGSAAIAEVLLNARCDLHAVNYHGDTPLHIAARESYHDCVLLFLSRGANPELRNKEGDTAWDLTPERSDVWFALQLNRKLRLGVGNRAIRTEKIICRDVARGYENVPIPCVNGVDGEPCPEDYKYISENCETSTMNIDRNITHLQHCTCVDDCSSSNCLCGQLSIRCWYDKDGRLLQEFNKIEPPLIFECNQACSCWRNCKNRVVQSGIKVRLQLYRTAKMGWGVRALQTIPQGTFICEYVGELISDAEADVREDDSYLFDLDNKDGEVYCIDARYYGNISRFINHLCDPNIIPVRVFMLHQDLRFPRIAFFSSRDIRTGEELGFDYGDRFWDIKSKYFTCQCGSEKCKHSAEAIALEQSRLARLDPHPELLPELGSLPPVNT
UniProt P03372: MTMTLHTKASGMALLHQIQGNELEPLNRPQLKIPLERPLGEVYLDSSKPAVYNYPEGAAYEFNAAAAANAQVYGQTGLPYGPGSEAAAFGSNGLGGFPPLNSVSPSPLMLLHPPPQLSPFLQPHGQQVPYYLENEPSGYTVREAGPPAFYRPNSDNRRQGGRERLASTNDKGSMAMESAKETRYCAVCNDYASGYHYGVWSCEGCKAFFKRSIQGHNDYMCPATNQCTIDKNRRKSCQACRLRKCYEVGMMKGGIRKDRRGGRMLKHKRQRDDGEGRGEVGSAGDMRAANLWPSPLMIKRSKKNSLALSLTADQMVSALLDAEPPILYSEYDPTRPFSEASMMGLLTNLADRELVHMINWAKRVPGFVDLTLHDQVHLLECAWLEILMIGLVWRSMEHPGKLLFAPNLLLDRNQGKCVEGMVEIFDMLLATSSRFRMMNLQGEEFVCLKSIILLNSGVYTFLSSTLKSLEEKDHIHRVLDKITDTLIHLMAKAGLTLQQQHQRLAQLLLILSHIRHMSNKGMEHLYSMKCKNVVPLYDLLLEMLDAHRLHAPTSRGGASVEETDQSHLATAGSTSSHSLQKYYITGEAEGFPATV

binding: binds
Substance: Estrogen Receptor alpha (ERα) (from UniProt P03372 1-595)

Source: article doi:10.1101/2023.07.25.550368
